Data from US7498127.
Results are given in words; binding and its absence hold for the method and conditions named. Some entries that bind do so weakly or less than the wild type.

Target: T1, promyelocytic leukemia zinc finger (PLZF) protein found in a human heart cDNA library (human) (UniProt Q05516)
T1 sequence (looked up): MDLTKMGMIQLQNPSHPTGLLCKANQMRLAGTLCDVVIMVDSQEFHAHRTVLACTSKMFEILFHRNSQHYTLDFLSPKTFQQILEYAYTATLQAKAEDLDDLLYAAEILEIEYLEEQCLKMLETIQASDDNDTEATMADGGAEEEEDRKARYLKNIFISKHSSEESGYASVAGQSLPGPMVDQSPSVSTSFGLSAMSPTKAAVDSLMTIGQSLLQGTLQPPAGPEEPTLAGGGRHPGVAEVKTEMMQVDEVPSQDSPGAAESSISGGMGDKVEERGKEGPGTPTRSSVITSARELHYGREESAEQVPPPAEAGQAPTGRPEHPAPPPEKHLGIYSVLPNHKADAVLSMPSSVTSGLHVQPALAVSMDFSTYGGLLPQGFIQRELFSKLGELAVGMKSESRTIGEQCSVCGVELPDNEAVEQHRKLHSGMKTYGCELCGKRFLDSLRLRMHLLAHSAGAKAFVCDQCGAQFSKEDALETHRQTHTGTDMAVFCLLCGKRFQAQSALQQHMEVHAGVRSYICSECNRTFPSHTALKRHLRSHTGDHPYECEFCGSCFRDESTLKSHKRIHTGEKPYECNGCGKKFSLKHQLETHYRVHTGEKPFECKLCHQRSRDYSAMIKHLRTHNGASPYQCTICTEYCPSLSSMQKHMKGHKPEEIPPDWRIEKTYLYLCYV
Assay: yeast two-hybrid screen of a human heart cDNA library (Clontech system), HB-EGF domain as bait

RYHRRGGYDVENEEKVKLGMTNSH [intracellular domain (185-208aa) of the HB-EGF]
binding: binds
